From US20240197702A1, “ANTISEPTIC-ANTIBIOTIC GUMBOS EFFECTIVE AGAINST GRAM-NEGATIVE PATHOGENS” (priority 2020, published 2024)
For at least one compound, name, drawing or mass did not settle the structure. Some results were stated once for a whole list of compounds, not compound by compound.

How the values were obtained:
[1] = system: clinical isolates of N. gonorrhoeae; test: MIC by micro-broth dilution against N. gonorrhoeae clinical isolates; format: cell-based, Neisseria gonorrhoeae
Protocol: Minimum Inhibitory Concentrations of GUMBOS against N. gonorrhoeae: Clinical isolates of N. gonorrhoeae and N. gonorrhoeae ATCC 49226 were obtained from Louisiana State University Health Sciences Center New Orleans HIV Outpatient Clinic. Minimum inhibitory concentrations (MICs) of GUMBOS, constituent parent drugs, azithromycin, and unreacted mixtures were determined using micro-broth dilution in 96-well plates. […] Stock solutions were diluted to a known working concentration and 100 μL were added to the first row of the plate. For susceptibility testing of N. gonorrhoeae, media was prepared according to methods reported by Wade and […]. Euro. Microbiol. Soc. Microbiol. […] This liquid medium allowed dense growth of N. gonorrhoeae for use in broth dilution tests. Protein-free liquid media (100 μL) were added to each well and two-fold dilutions were performed. The antibiotic containing wells were inoculated with an equal volume of bacterial inoculum matching a 0.5 McFarland standard. […] The lowest concentration of antibiotic that prevents growth is the MIC.

[2] = system: N. gonorrhoeae ATCC 49226; test: Kirby-Bauer disc diffusion against N. gonorrhoeae ATCC 49226; format: cell-based, Neisseria gonorrhoeae; details: N. gonorrhoeae (ATCC 49226) and three clinical isolates
Protocol: Antimicrobial susceptibility testing: Kirby-Bauer disc diffusion susceptibility tests were used to determine zones of inhibition (ZOIs) for N. gonorrhoeae (ATCC 49226) and three clinical isolates obtained from Louisiana State University Health Sciences Center New Orleans HIV Outpatient Clinic. Kirby-Bauer disc diffusion is one of the CDC's preferred methods of testing the susceptibility of N. gonorrhoeae. Testing was performed according to CLSI recommended procedures. In this susceptibility test, 6 mm diameter blank paper discs were impregnated with known quantities of antimicrobial drug followed by evaporation of solvent; however, ceftriaxone, azithromycin and doxycycline antimicrobial susceptibility discs were purchased from Thermo Fisher Scientific. Impregnated discs were placed onto prepared nutrient agar plates that were inoculated with N. gonorrhoeae to give a confluent lawn of growth. Suspensions of these various strains were prepared in accordance with a 1.0 McFarland standard. Inoculated agar plates were incubated for 20-24 h at 37° C. in a 5% CO2 atmosphere.
Blank discs were loaded with 50 nmol of GUMBOS, respective constituent compounds and equivalent stoichiometric unreacted mixtures of octenidine and carbenicillin that are equimolar to the purchased ceftriaxone discs (Oxoid™, Thermo Fisher). After 20-24 h incubation, diameters of ZOIs were measured using a ruler. […]

Structure (SMILES)	Concentration required for growth inhibition, fold greater than GUMBOS [1]	Zone sizes against CLSI susceptibility range [2]
CC(=O)O.CC(=O)O.NC(=N\CCCCCC/N=C(N)/N=C(\N)Nc1ccc(Cl)cc1)/N=C(\N)Nc1ccc(Cl)cc1 [Chlorhexidine diacetate, chlorhexidine diacetate]	50-80 ×	–
C[C@H]1c2cccc(O)c2C(=O)C2=C(O)[C@]3(O)C(=O)C(C(N)=O)=C(O)[C@@H](N(C)C)[C@@H]3[C@@H](O)[C@@H]21 [Doxycycline, doxycycline]	–	within the susceptibility range set by CLSI
